From the supplement of paper PMC12823440, “Inhibitors supercharge kinase turnover through native proteolytic circuits” (Nature, 2025) come the findings set out here.

The chains behind the UniProt entries cited, without tags or fusion partners.
UniProt P06241, whole entry, looked up: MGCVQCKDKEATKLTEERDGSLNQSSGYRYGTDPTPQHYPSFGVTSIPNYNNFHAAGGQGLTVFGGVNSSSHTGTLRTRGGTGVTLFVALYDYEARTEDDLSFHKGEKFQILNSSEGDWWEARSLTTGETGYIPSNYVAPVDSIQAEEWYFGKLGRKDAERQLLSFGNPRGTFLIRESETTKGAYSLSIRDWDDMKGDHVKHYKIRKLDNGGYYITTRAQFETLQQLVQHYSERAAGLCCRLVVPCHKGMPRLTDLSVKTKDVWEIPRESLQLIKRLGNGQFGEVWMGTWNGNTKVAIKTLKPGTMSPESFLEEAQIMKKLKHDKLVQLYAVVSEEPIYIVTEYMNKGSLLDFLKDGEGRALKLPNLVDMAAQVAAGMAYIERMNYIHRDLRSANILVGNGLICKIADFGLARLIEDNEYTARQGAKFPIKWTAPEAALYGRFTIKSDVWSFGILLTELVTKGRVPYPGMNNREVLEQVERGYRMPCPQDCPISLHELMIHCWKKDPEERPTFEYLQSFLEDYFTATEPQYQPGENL

Counter-ions that a name gives are not always drawn. This is one part of the list. Hit calls seldom repeat between salt and free forms of one compound.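 Kinases, fused to nanoluciferase, were expressed in K562 cells; luminescence was measured every 4 h from 2 to 18 h as percent of control (DMSO = 100%, positive control = 0%). A time point is decreased if signal falls significantly (2 sigma). Hits were called by the authors by a rule that is not shown; the count of time points alone does not decide it.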

This test deals with FYN (UniProt P06241). Kind of test: kinase-Nluc reporter destabilization hit call (1 = scored as downregulated) (binary); higher = compound decreases kinase abundance. Particulars: K562; 2-18 h.
`CC1=C[C@]23C(=O)[C@@H](C=C(CO)[C@@H](O)[C@]2(O)[C@H]1O)[C@H]1[C@@H](C[C@H]3C)C1(C)C` [Ingenol] (10 µM): the “kinase-Nluc reporter destabilization hit call” value is inactive: 0. Consider `C=C[C@H]1CN2CC[C@]3(C(=O)Nc4ccccc43)[C@@H]2C[C@@H]1/C(=C\OC)C(=O)OC` [Corynoxeine] (2 µM), for which the “kinase-Nluc reporter destabilization hit call” value is inactive: 0.

As for `O=C(O)c1sc2cc(Cl)ccc2c1Cl` (10 µM), the “kinase-Nluc reporter destabilization hit call” value is inactive: 0.

Regarding `C[C@H]1CC[C@]2(NC1)O[C@H]1C[C@H]3[C@@H]4CC[C@H]5C[C@@H](O)CC[C@]5(C)[C@H]4CC[C@]3(C)[C@H]1[C@@H]2C` [Tomatidine (hydrochloride)] (10 µM), the “kinase-Nluc reporter destabilization hit call” value was inactive: 0. Regarding `O=C1C=CC[C@@H]2[C@H]3CCCN4CCC[C@@H](CN12)[C@@H]34` [Sophocarpine (monohydrate)] (2.5 µM), the “kinase-Nluc reporter destabilization hit call” value is inactive: 0. Turning to `Cc1n[nH]cc1-c1cc2nc([C@@H]3CC4CCN3CC4)[nH]c(=O)c2s1` [Simurosertib] (2.5 µM), the “kinase-Nluc reporter destabilization hit call” value was inactive: 0. Consider `O=C(N[C@@H](COc1ccc2[nH]c(=O)[nH]c2c1)c1ccccc1)c1cccn(Cc2ccc(F)c(F)c2)c1=O` (2.5 µM), for which the “kinase-Nluc reporter destabilization hit call” value is inactive: 0. Take `O=C(/C=C/c1ccccc1)OC[C@H]1O[C@@H](O[C@@H]2OC=C[C@H]3[C@H](O)[C@@H]4O[C@]4(CO)[C@@H]23)[C@H](O)[C@@H](O)[C@@H]1O` [Picroside I] (10 µM): the “kinase-Nluc reporter destabilization hit call” value was inactive: 0. As to `C[C@@H]1CC[C@H]2[C@@H](C)C(=O)O[C@@H]3O[C@@]4(C)CC[C@@H]1[C@]32OO4` [Artemisinin] (10 µM), the “kinase-Nluc reporter destabilization hit call” value is inactive: 0.
